From paper PMC2829074
No constants are given. Whether binding was seen depends on the method and setting. Some entries that bind do so weakly or less than the wild type.

Sequences of proteins named here, by UniProt entry; tags and fusion partners are left off. A change or cut given only in a name is not applied to a line headed by its entry.
UniProt P02452: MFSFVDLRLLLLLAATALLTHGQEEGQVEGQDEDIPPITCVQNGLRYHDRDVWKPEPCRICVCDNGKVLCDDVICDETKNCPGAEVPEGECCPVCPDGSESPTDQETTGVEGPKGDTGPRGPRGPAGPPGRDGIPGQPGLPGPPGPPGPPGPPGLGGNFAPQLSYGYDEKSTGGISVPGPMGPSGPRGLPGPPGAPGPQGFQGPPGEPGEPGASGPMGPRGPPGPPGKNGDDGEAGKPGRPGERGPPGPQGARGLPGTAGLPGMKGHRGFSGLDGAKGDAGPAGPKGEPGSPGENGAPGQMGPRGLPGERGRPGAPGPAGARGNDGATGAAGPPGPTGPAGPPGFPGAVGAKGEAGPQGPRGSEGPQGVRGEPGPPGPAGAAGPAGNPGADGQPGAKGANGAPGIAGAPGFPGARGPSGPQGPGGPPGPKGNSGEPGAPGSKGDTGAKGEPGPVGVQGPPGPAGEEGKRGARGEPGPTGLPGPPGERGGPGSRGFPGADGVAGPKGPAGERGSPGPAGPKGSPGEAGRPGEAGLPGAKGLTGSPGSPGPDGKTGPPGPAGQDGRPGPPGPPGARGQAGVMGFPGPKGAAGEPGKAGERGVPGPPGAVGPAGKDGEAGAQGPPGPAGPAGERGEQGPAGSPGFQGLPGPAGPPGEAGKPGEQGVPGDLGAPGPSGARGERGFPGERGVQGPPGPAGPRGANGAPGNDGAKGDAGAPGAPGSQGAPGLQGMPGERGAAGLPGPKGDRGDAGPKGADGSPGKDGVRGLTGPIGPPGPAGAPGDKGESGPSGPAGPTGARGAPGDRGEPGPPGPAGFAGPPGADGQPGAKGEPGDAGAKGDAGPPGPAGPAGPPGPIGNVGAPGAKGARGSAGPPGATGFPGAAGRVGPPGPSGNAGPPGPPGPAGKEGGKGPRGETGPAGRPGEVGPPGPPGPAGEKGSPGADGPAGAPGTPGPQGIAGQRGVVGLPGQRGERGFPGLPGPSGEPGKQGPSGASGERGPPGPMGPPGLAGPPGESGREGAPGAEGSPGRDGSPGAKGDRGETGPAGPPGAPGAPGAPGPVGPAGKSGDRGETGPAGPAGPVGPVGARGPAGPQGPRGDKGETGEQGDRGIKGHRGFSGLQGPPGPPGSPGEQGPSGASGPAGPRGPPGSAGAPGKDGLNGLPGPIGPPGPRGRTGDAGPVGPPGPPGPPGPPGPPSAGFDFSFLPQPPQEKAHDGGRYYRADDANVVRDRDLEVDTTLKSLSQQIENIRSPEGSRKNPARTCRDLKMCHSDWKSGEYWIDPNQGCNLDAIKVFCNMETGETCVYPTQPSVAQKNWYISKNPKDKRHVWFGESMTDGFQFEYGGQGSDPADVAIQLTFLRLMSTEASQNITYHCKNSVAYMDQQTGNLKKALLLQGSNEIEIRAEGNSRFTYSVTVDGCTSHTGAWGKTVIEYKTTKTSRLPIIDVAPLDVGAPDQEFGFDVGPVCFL
UniProt P08123: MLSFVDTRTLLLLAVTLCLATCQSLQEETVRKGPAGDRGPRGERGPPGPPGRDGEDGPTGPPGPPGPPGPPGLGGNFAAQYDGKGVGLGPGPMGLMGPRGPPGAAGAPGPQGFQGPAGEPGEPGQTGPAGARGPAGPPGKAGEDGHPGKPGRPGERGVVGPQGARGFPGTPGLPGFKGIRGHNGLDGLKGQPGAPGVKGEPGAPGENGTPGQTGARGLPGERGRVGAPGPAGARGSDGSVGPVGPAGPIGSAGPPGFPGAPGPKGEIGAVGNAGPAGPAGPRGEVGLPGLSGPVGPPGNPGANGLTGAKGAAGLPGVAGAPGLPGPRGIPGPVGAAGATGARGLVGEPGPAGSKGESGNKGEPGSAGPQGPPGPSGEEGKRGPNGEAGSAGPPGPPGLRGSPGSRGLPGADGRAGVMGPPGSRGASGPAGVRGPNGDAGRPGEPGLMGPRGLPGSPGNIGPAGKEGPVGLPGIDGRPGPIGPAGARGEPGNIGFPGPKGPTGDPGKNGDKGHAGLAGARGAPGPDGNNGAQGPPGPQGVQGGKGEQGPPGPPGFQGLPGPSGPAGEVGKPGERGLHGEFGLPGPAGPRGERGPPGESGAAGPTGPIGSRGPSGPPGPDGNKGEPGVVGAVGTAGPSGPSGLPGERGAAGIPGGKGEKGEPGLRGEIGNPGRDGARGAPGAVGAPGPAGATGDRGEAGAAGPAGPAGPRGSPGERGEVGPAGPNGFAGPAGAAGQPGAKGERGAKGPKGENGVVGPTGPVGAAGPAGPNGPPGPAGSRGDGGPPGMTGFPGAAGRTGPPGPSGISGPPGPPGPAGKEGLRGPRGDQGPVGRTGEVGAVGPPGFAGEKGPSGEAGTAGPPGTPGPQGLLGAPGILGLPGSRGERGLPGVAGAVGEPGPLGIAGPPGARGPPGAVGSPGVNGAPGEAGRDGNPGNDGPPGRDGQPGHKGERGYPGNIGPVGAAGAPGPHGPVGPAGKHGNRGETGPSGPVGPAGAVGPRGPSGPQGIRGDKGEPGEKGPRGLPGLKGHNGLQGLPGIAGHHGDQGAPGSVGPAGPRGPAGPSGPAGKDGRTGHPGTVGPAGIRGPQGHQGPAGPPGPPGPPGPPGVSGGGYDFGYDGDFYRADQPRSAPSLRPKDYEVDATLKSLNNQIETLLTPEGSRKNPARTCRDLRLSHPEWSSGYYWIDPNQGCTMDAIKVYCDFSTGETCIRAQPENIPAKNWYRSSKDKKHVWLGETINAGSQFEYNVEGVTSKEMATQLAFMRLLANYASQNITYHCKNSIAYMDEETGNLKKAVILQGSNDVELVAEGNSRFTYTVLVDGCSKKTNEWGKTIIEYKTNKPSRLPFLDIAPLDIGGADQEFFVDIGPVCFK

Biological target: human placenta soluble collagen Type I (human) (UniProt P02452+P08123)
Test: ELISA; specificity, solid-phase binding assay: VTNC (25 ng), fibrilar collagen (50 ng), ixolaris (75 ng), soluble collagen and laminin (100 ng) immobilized per well, Cyr61 30 nM in PBS-T for 90 minutes, detected with anti-Cyr61 monoclonal antibody; both purified

B1: Cyr61/CCN1 (protein, UniProt O00622 25-381)
chain: TCPAACHCPLEAPKCAPGVGLVRDGCGCCKVCAKQLNEDCSKTQPCDHTKGLECNFGASSTALKGICRAQSEGRPCEYNSRIYQNGESFQPNCKHQCTCIDGAVGCIPLCPQELSLPNLGCPNPRLVKVTGQCCEEWVCDEDSIKDPMEDQDGLLGKELGFDASEVELTRNNELIAVGKGSSLKRLPVFGMEPRILYNPLQGQKCIVQTTSWSQCSKTCGTGISTRVTNDNPECRLVKETRICEVRPCGQPVYSSLKKGKKCSKTKKSPEPVRFTYAGCLSVKKYRPKYCGSCVDGRCCTPQLTRTVKMRFRCEDGETFSKNVMMIQSCKCNYNCPHANEAAFPFYRLFNDIHKFRD
  binding: binds
